Data taken from the supplement of paper PMC3334620.
Whole data set: some 33,000 sequences, median “E-score (-0.5 to 0.5)” near -0.0059, cut for the highest 2% near 0.26. Some of the results follow.

The sequences below were run against T1, Cin5 (UniProt P40917) (assay: PBM E-score (8-mer binding enrichment) (E-score (-0.5 to 0.5)); higher = stronger / more preferred TF binding). Conditions: protein concentration: 100 nM; construct: GST-full length.
T1 sequence: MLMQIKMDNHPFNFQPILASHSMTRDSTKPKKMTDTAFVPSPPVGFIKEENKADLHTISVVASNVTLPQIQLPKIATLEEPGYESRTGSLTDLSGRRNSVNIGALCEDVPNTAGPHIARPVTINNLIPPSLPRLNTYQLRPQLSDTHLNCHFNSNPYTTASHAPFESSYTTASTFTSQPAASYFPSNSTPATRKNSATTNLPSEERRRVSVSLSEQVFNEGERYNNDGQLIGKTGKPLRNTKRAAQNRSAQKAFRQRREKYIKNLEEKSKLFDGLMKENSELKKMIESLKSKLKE
In short: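 Detection of bound protein used fluorescent anti-GST, with scans normalised by masliner. The proteins were GST-tagged yeast transcription factors applied at about 100-200 nM to universal all-10-mer Agilent arrays made double-stranded by primer extension. Each ungapped eight-base word, pooled with its reverse complement, was scored with an E-score from the Universal PBM Analysis Suite.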

Sequence | PBM E-score
TCGTTAAA | -0.0492
CACATCTC | 0.16
TCATCAAA | 0.0473
ACCCATCC | -0.0519
CATTAGTA | 0.188
GAGCAATA | 0.0169
AGCACTTC | 0.065
AAGTGGGG | -0.101
ACAGGAAT | -0.0516
GCGGCTAA | -0.00261
GACCAGGA | -0.112
TGGGTGAA | 0.225
CGAATATC | 0.144
CACCTGAG | -0.0269
AGGATAAG | -0.0206
TTCATCAA | 0.165
TATTCTAA | 0.134
TAGCATGA | 0.135
CGATCGAC | 0.0723
ATTCAATA | 0.182
CAGACCCG | -0.0305
ACGGGCAA | -0.141
ATCAGTAC | 0.0414
CTACTATC | 0.257
CAATTCAG | 0.0836

Sequence | PBM E-score
GTCTAAAC | 0.0651
TTCGTCAA | 0.016
AAGAACGT | 0.15
CCCCATGC | -0.0905
CTAGCGAG | -0.221
AGGTAAGA | 0.0847
ATCAACAT | 0.169
CCAGTCCC | -0.0959
ATTTTCAC | 0.143
TGCCTCCA | -0.213
CAGCGTGC | -0.161
AAGCCAAC | 0.00646
AACCAATG | 0.152
GCGTATGA | 0.0035
AATTATAG | 0.188
CGGGTCGA | -0.181
ACATGTGC | 0.0977
GATGCTGC | -0.13
ACGGATTG | 0.169
AAAGGGTG | -0.149
CCTACCGA | -0.0732
AACTACCG | -0.131
GACCTCTC | -0.0169
CTCGGAAG | -0.0459
CTAGAGAC | -0.172

Sequence | PBM E-score
GGGGTTGA | 0.0524
GATAAACC | 0.0849
AACATCGT | -0.0661
CGTTGGCA | -0.0305
GTTAGGCA | -0.149
AATTACTC | 0.241
CGCAATCC | 0.16
ACTGTCAG | 0.103
ACCGTGTG | -0.178
GAGGTCTA | -0.179
ACTCCTTC | -0.155
CGGCTTTC | -0.091
AGCTAGAG | -0.0418
ACCCCTCT | -0.17
CGGTGTAC | -0.147
CATAAATA | 0.183
CTGAAAAC | -0.105
ATACTGAC | 0.192
TCGAACGA | 0.103
GAGGTATC | -0.12
CCAAATAG | 0.0432
CCCACGAG | -0.086
AGACTGTC | -0.224
CCGGCTAC | -0.0224
ACGTGGAG | 0.0901

Sequence | PBM E-score
CCTCTTCG | 0.0255
ATGCCCTA | -0.0594
CTTGCCTC | -0.103
AGTATATA | 0.346
GCGATGGA | 0.0569
AGCTTGCC | -0.0852
AGGACTCC | -0.328
AACGAGCC | -0.188
CGCCCCAC | 0.131
CCACTAGA | -0.235
ACCACCTA | -3e-05
ACGCGGTC | -0.0605
CACTGAAC | 0.0413
ATCCCTAG | 0.0251
CTGACGCC | -0.194
CTGCCCCC | -0.324
AAAGGTAG | -0.101
CTCTAAAG | -0.0882
AGCTCATG | -0.0196
ACTCATAA | 0.132
ACGCAACC | -0.0681
AAGGGCAC | -0.219
GCATTGCA | 0.0405
CGGAGTCC | 0.00061
CGCGGCTA | 0.107

Sequence | PBM E-score
TCAGGCCA | -0.0616
AGTGTTAG | 0.0972
AGTCATTG | 0.0305
CCACGGCA | -0.0943
TAAGGCAA | 0.0779
ATACCTTA | 0.0223
AGATACCA | 0.254
AGCGGAAA | 0.238
ACTCTCAT | 0.115
CCATGTAA | 0.171
GGCTGTCA | -0.21
ACAGGGAG | -0.221
AGTGCAGG | 0.0389
CCGAACTC | -0.0235
AGCCGTTG | -0.0672
AGGGGGAG | -0.399
ACTGAAGA | -0.0176
ATCTGAAT | 0.0915
CCGTTGCC | -0.259
CCCGGCGC | -0.236
CTCACAGC | -0.0256
ACCAATTG | -0.0132
ATCTGCGG | 0.114
CACCGAAA | 0.0875
AAATCCTA | 0.103

Sequence | PBM E-score
ACGCCTCC | -0.214
ATCCCCAG | -0.00316
AGAACCGG | -0.0383
ACCCGACG | -0.0936
CATAGGAG | 0.0535
ACTAACCA | 0.0193
GCGCCTAA | -0.0308
AGAGATTA | 0.175
CGGCAGCC | -0.0672
AATCTTAC | 0.25
AGTCCATA | -0.0502
ACTCGGCT | -0.0112
GATCCGAC | -0.172
CATGGTGG | -0.149
CGTATTCC | 0.148
GCAGACCC | -0.202
CTTTCCAA | -0.0214
AAGCACAT | 0.206
AGACGTCA | -0.00622
AACTCGGA | 0.0515
CACGAGCC | -0.193
AAGTTTGA | 0.107
AGCTTGCA | 0.11
ACGTCCGA | -0.133
AGTCTTAC | 0.0876

A few values from the entries so far:
Under PBM E-score, AGAGATTA is listed with 0.175
Under PBM E-score, AGACGTCA is listed with -0.00622
Under PBM E-score, GATCCGAC is listed with -0.172
Under PBM E-score, AATCTTAC is listed with 0.25
Under PBM E-score, AGAACCGG is listed with -0.0383
Under PBM E-score, AGTCTTAC is listed with 0.0876
Under PBM E-score, ACTAACCA is listed with 0.0193

(listing goes on)

Sequence | PBM E-score
AAGATGTC | -0.0313
AATCGTGT | 0.129
AACGCACG | 0.0844
GAATCTGA | -0.0334
TCACACAA | 0.0832
ACAATTTA | 0.185
GGCAGCAA | -0.00946
AATCCCGG | 0.0516
GGCCGGCC | -0.163
ATGCGACA | 0.0796
ACACCCTC | -0.0884
GCGAACGA | 0.042
CTTCTGCA | -0.032
CTCCAGGC | -0.175
CTTGCGGC | -0.0724
ACCCCGTG | 0.0026
CCGCTGGA | -0.0541
CGTAATAC | 0.257
ATTATTCG | 0.288
CGAGCGAG | 0.188
GTAAGGAA | 0.028
GTAGCATA | -0.0137
